Measured values published in patent publication US7172865.

By UniProt entry, the sequences of proteins in these tests, tags left out. Residues count along the entry.
UniProt P0ACJ8, 2-210: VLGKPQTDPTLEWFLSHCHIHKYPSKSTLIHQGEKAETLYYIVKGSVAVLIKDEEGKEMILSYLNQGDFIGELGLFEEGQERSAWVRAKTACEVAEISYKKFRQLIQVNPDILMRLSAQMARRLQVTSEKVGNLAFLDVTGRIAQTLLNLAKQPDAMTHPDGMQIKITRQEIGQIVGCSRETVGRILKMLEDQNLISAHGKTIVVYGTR

Biological target: CAP (cAMP receptor protein, CRP) (Escherichia coli) (UniProt P0ACJ8)
Assay: binding assay
Details: 12 Spacer 18 units between the C22 and A23 positions of CAP7 (after ...GGCACC) [strand 1: 2 (N, modified T), 12 Spacer 18 units left out after ...GGCACC (between 21 and 22 as printed; stated C22/A23); strand 2: 2 (N, modified T)]; FRET quenching about 70% at 75 nM CAP, complete within about 20 s; 50 mM NaCl, 200 uM cAMP; purified recombinant protein; letters built from the parent sequence and the stated change

CTAGATCACATTTTAGGCACCAACGCAATAAATGTGAT / CTAGATCACATTTATTGCGTT / GGTGCCTAAAATGTGAT [CAP7/CAP8/CAP9 linked construct]
binding result: binds

For at least one entry, the source does not settle the construct or the ends of the probe.
